Experimental data published in PubChem BioAssay AID296 (DTP/NCI, 2004).
The list does not hold the whole screen: it gathers tests that were run many times, whatever their T/C, doses with no T/C, and many T/C values between a quarter and a half above the control. Further doses and runs are listed elsewhere. T/C gives the treated animals as a percentage of the vehicle group. Schedule codes are those of the source, read here as Q, the interval in days (D) or hours (H), X, the number of doses. Some values lie below zero, which means that the treated tumours became smaller. Some doses were run more than once; the values are given in rising order. Some T/C values carry the count of animals alive at the toxicity check (mostly the fifth day); without a count, all were alive then. Some entries give survivors of the animals treated and no T/C: the source holds a T/C of zero for them, seemingly a mark for toxic or unscored doses. Survivors were counted at the toxicity check, usually on the fifth day, unless a day is given; later deaths do not show.

Test system: MX-1 breast xenograft, nude mice, tumor weight T/C
Experiment: NCI In Vivo Anticancer Drug Screen. Data for tumor model Human Mammary Carcinoma MX-1 Xenograft (intrarenal inoculation) in NU/NU Swiss (nude) mice
Settings: T/C endpoint: mean tumor weight change, higher T/C = larger tumour; for T/C: evaluated on day 11
How it was run: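 Compound dosed to mice with transplantable tumor; vehicle group as control. Endpoint survival or tumour size, reported as T/C.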

[1] = dose: 50.0 mg/kg/injection, schedule: Q04DX003 (sc), vehicle: saline
[2] = dose: 100.0 mg/kg/injection, schedule: Q01DX010 (sc), vehicle: saline
[3] = dose: 300.0 mg/kg/injection, schedule: Q04DX003 (sc), vehicle: saline with Tween-80
[4] = dose: 400.0 mg/kg/injection, schedule: Q01DX010 (sc), vehicle: Klucel (hydroxypropylcellulose) (HPC)
[5] = dose: 2.0 mg/kg/injection, schedule: Q01DX010 (sc), vehicle: saline
[6] = dose: 1.0 mg/kg/injection, schedule: Q01DX010 (sc), vehicle: saline

## O=C(O)c1cc(C(=O)O)c(C(=O)O)cc1C(=O)O.[NH2-].[NH2-].[NH2-].[NH2-].[Pt+2].[Pt+2]
dose: 2.5 mg/kg/injection, schedule: Q04DX003 (ip), vehicle: water
  T/C: 126 % of control

## C1OC1C1CO1 (stereo not drawn)
dose: 12.5 mg/kg/injection, schedule: Q04DX003 (sc), vehicle: saline
  T/C: -81, 43, 55, 65, 92 % of control
dose: 25.0 mg/kg/injection, schedule: Q04DX003 (sc), vehicle: saline
  T/C: -100, 3, 19, 27, 86 % of control
[1]
  T/C: -87 [4 of 6 alive on day 11], -43, 45 % of control [5 of 6 alive on day 11]
  survivor count: 1 of 6 on day 11 and 2 of 6 on day 11
[2]
  survivor count: 0 of 3 on day 11 and 0 of 6 on day 11
dose: 100.0 mg/kg/injection, schedule: Q04DX003 (sc), vehicle: saline
  survivor count: 0 of 6 on day 11
dose: 100.0 mg/kg/injection, schedule: Q04DX003 (sc), vehicle: suspension in saline
  survivor count: 0 of 6 on day 11

## C[Si](C)(C)n1nnn(-c2ccccc2)c1=O
[3]
  T/C: 135 % of control

## Cc1cc(N(CCOS(C)(=O)=O)CCOS(C)(=O)=O)ccc1C=Nc1ccc(-c2nc(Cc3ccccc3)sc2C)cc1
[4]
  survivor count: 1 of 3 on day 11

## C/C=C(\C)C(=O)OC1C(C)=C2C(C1OC(=O)CCCCC)C(C)(OC(C)=O)CC(OC(=O)CCC)C1(O)C2OC(=O)C1(C)O (stereo not drawn)
dose: 4.0 mg/kg/injection, schedule: Q04DX003 (ip), vehicle: Klucel (hydroxypropylcellulose) (HPC)
  survivor count: 0 of 6 on day 11
dose: 8.0 mg/kg/injection, schedule: Q04DX003 (ip), vehicle: Klucel (hydroxypropylcellulose) (HPC)
  survivor count: 0 of 6 on day 11
dose: 16.0 mg/kg/injection, schedule: Q04DX003 (ip), vehicle: Klucel (hydroxypropylcellulose) (HPC)
  survivor count: 0 of 6 on day 11

## CO[C@H](C(=O)[C@@H](O)[C@@H](C)O)[C@@H]1Cc2cc3cc(OC4CC(OC5CC(O)C(O)C(C)O5)C(O)C(C)O4)c(C)c(O)c3c(O)c2C(=O)[C@H]1OC1CC(OC2CC(OC3CC(C)(O)C(O)C(C)O3)C(O)C(C)O2)C(O)C(C)O1 (stereo partly drawn)
[5]
  survivor count: 0 of 3 on day 11
dose: 3.0 mg/kg/injection, schedule: Q04DX003 (sc), vehicle: saline
  survivor count: 2 of 6 on day 11
dose: 4.0 mg/kg/injection, schedule: Q01DX010 (sc), vehicle: saline
  survivor count: 0 of 3 on day 11
dose: 6.0 mg/kg/injection, schedule: Q04DX003 (sc), vehicle: saline
  survivor count: 0 of 6 on day 11

## C=C(C)C(=NC(C)(C)C)Nc1ccccc1
dose: 200.0 mg/kg/injection, schedule: Q04DX003 (sc), vehicle: saline with Tween-80
  survivor count: 0 of 6 on day 11
dose: 400.0 mg/kg/injection, schedule: Q04DX003 (sc), vehicle: saline with Tween-80
  survivor count: 0 of 6 on day 11
dose: 800.0 mg/kg/injection, schedule: Q04DX003 (sc), vehicle: saline with Tween-80
  survivor count: 0 of 6 on day 11

## C[CH2][Pb]([CH2]C)([CH2]C)[O]C(=O)COc1ccccc1
dose: 36.0 mg/kg/injection, schedule: Q04DX003 (sc), vehicle: saline with Tween-80
  survivor count: 2 of 6 on day 11

## CS(=O)(=O)OCCN(CCOS(C)(=O)=O)c1ccc(C=O)cc1
dose: 6.25 mg/kg/injection, schedule: Q01DX010 (sc), vehicle: saline
  T/C: 127 % of control
dose: 50.0 mg/kg/injection, schedule: Q01DX010 (sc), vehicle: saline
  survivor count: 0 of 3 on day 11 and 1 of 3 on day 11
[2]
  survivor count: 0 of 3 on day 11

## CCCCCC(O)C1C(=O)OC(C)C(O)/C=C/C=C/C=C/C=C\C=C(\C)C(O)CC(O)CC(O)CC(O)CC(O)CC(O)CC1O (stereo not drawn)
dose: 150.0 mg/kg/injection, schedule: Q04DX003 (sc), vehicle: distilled water + alcohol
  T/C: 131 % of control

## Nc1nc2c(C(=O)N3CCCC3)nnn2c2ccccc12
[3]
  survivor count: 0 of 6 on day 11

## CC(O)C1(O)C(O)CC(OC2c3cc4c(c(O)c3[C@@H]3C[C@@]2(C)OC32C=c3cc[nH]c3=N2)C(=O)c2cccc(O)c2C4=O)OC1C (stereo partly drawn)
dose: 37.5 mg/kg/injection, schedule: Q04DX003 (ip), vehicle: saline with Tween-80
  T/C: 125 % of control
dose: 75.0 mg/kg/injection, schedule: Q04DX003 (ip), vehicle: saline with Tween-80
  survivor count: 0 of 6 on day 11
dose: 150.0 mg/kg/injection, schedule: Q04DX003 (ip), vehicle: saline with Tween-80
  survivor count: 0 of 6 on day 11
dose: 300.0 mg/kg/injection, schedule: Q04DX003 (ip), vehicle: saline with Tween-80
  survivor count: 0 of 6 on day 11

## O=c1s[se]c2ccccc12
dose: 600.0 mg/kg/injection, schedule: Q04DX003 (sc), vehicle: Klucel (hydroxypropylcellulose) (HPC)
  survivor count: 3 of 6 on day 11
dose: 1200.0 mg/kg/injection, schedule: Q04DX003 (sc), vehicle: Klucel (hydroxypropylcellulose) (HPC)
  survivor count: 2 of 6 on day 11

## COc1cccc2c1C(=O)c1c(O)c3c(c(O)c1C2=O)C[C@@](O)(C(=O)CO)C[C@@H]3OC1CC(OC(C)=O)C(OC(C)=O)C(C)O1 (stereo partly drawn)
dose: 25.0 mg/kg/injection, schedule: Q01DX010 (sc), vehicle: distilled water + Tween-80
  survivor count: 1 of 3 on day 11
dose: 50.0 mg/kg/injection, schedule: Q01DX010 (sc), vehicle: distilled water + Tween-80
  survivor count: 0 of 3 on day 11

## CC(=O)[C@]1(O)Cc2c(O)c3c(c(O)c2[C@@H](OC2CC(N)C(O)C(C)O2)C1)C(=O)c1c(O)cccc1C3=O (stereo partly drawn)
[6]
  survivor count: 1 of 3 on day 11
[5]
  survivor count: 0 of 3 on day 11

## CCO/C=C1\SC(=S)N(c2ccccc2C)C1=O
dose: 400.0 mg/kg/injection, schedule: Q01DX010 (sc), vehicle: saline with Tween-80
  T/C: 139 % of control

## Nc1nc(N)c2c(ccc3c2ccn3Cc2cccc([N+](=O)[O-])c2)n1
dose: 150.0 mg/kg/injection, schedule: Q04DX003 (sc), vehicle: saline with Tween-80
  survivor count: 1 of 6 on day 11
[3]
  survivor count: 2 of 6 on day 11

## O=C(C#Cc1ccccc1)c1ccccc1
dose: 150.0 mg/kg/injection, schedule: Q04DX003 (sc), vehicle: Klucel (hydroxypropylcellulose) (HPC)
  survivor count: 2 of 6 on day 11

## CC1CCC(NC(=O)N(CCCl)N=O)CC1 (stereo not drawn)
dose: 25.0 mg/kg/injection, schedule: Q01DX010 (sc), vehicle: Klucel (hydroxypropylcellulose) (HPC)
  survivor count: 0 of 3 on day 11
dose: 50.0 mg/kg/injection, schedule: Q01DX010 (sc), vehicle: Klucel (hydroxypropylcellulose) (HPC)
  survivor count: 0 of 3 on day 11

## CC(C)(C[NH-])C[NH-].[Cl][Pt+2][Cl]
dose: 6.0 mg/kg/injection, schedule: Q04DX003 (ip), vehicle: other
  T/C: 126 % of control [5 of 6 alive on day 11]
dose: 12.0 mg/kg/injection, schedule: Q04DX003 (ip), vehicle: other
  survivor count: 2 of 6 on day 11
dose: 12.0 mg/kg/injection, schedule: Q04DX003 (ip), vehicle: water
  survivor count: 2 of 6 on day 11

## CC[C@H]1CN2CCc3cc(OC)c(OC)cc3[C@@H]2C[C@@H]1C[C@H]1NCCc2cc(OC)c(OC)cc21
[6]
  T/C: 137 % of control
dose: 8.0 mg/kg/injection, schedule: Q01DX010 (sc), vehicle: saline
  survivor count: 0 of 3 on day 11

## O=c1[nH]c(=O)n([C@H]2CCCO2)cc1F
[4]
  T/C: 131 % of control
